According to paper PMC12811620:
Results are given in words; binding and its absence hold for the method and conditions named. In cells and extracts the contact can be indirect. Some results given as binding are weak or reduced against the parent protein; the word gives no strength. Values belong to the substance of their own block, whether it stands above or below them.

By UniProt entry, the sequences of proteins in these tests, tags left out.
UniProt Q9Z2C8: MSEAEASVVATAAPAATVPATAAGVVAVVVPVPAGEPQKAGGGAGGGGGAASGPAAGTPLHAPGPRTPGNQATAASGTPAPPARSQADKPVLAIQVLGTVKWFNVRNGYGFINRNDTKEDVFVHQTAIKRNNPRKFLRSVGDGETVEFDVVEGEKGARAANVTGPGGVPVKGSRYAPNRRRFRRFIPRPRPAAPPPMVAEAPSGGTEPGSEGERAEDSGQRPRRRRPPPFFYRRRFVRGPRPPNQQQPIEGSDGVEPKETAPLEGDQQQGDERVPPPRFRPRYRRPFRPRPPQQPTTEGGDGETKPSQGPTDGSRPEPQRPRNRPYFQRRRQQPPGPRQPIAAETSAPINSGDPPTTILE
UniProt Q9CPN8: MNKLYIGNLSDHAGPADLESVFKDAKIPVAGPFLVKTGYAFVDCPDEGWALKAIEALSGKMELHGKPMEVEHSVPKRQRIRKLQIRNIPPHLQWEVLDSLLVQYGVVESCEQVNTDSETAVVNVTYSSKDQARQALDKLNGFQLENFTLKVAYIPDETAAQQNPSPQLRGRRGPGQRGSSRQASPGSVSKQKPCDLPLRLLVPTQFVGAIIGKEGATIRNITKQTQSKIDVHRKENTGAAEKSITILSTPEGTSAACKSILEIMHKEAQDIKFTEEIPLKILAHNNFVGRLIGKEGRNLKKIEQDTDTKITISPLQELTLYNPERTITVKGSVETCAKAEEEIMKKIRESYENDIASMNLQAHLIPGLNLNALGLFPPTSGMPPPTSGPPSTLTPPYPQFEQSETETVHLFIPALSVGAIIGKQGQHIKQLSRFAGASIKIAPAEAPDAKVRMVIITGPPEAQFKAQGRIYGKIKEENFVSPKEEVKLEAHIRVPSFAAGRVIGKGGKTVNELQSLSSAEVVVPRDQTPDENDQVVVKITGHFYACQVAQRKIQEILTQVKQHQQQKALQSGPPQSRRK

Columns and labels:
[1] = biological target: MYC-YBX2 (mouse YBX2 from pHIV-Ybx2-3xMYC-Bsd) (mouse) (UniProt Q9Z2C8); experiment: co-IP; lysates of co-transfected HEK293T cells; immunoprecipitation with anti-IgG, anti-FLAG or anti-MYC antibodies, treated with RNase A (+); blot for FLAG and MYC
[2] = biological target: FLAG-IGF2BP3 (mouse IGF2BP3 from pHIV-Igf2bp3-3xFLAG-Puro) (mouse) (UniProt Q9CPN8); experiment: as above
[3] = biological target: Insulin-like growth factor 2 mRNA-binding protein 3 (IGF2BP3), endogenous in mouse round spermatids (mouse (endogenous in round spermatids)) (UniProt Q9CPN8); experiment: co-IP; adult mouse round spermatid lysate; immunoprecipitation with anti-IgG or IGF2BP3 antibodies, treated with RNase A (+) or not (−); blot for IGF2BP3 and YBX2

binding [1]: binds
Substance: FLAG-IGF2BP3 (mouse IGF2BP3 from pHIV-Igf2bp3-3xFLAG-Puro) (from UniProt Q9CPN8 1-579)

binding [2]: binds
Substance: MYC-YBX2 (mouse YBX2 from pHIV-Ybx2-3xMYC-Bsd) (from UniProt Q9Z2C8 1-360)

binding [3]: binds
Substance: YBX2, endogenous in mouse round spermatids (from UniProt Q9Z2C8 1-360)
